Data as given in the supplement of paper PMC5393889.
The other results are listed elsewhere or left out.

Each compound was assayed on Caenorhabditis elegans N2 (assay: aldicarb interaction hit call (worm growth perturbed in combination with 10 uM aldicarb in both replicates, no effect as single agent) (binary (1 = interacts)); higher = interacts with aldicarb (growth perturbed)). Settings: first compound 1.5 µM; aldicarb concentration 10 µM; 6 days; 20 °C.
For `O=C(NC(=S)Nc1ccc(Cl)c(Cl)c1)c1ccccc1I` [wact-369] + CNC(=O)O/N=C/C(C)(C)SC [aldicarb], the “aldicarb interaction hit call” value was inactive: 0.
`CCN1CCN(c2ccc(NC(=O)c3ccco3)cc2Cl)CC1` [wact-99] + CNC(=O)O/N=C/C(C)(C)SC [aldicarb] was tested, and the “aldicarb interaction hit call” value was inactive: 0.
In the case of `Fc1ccc(N2CCN(Cc3cccc(Br)c3)CC2)cc1` [wact-30] + CNC(=O)O/N=C/C(C)(C)SC [aldicarb], the “aldicarb interaction hit call” value is reported as inactive: 0.
With `CSc1ccccc1C(=O)NCCSc1ccc(C)cc1` [wact-548] + CNC(=O)O/N=C/C(C)(C)SC [aldicarb] the “aldicarb interaction hit call” value was inactive: 0.
`O=[N+]([O-])c1ccc2nc(-c3ccccc3)[nH]c2c1` [wact-363] + CNC(=O)O/N=C/C(C)(C)SC [aldicarb] was tested, and the “aldicarb interaction hit call” value was inactive: 0.
With `Clc1ccc(OCC#CCSc2ncccn2)cc1` [wact-121] + CNC(=O)O/N=C/C(C)(C)SC [aldicarb] the “aldicarb interaction hit call” value was inactive: 0.
With `Cc1c(Cl)ccc(OCCN2CCNCC2)c1C.O=C(O)C(=O)O` [wact-80] + CNC(=O)O/N=C/C(C)(C)SC [aldicarb] the “aldicarb interaction hit call” value was inactive: 0.
With `COCCCNCc1cn(-c2ccc(F)cc2)nc1-c1ccccc1Cl` [wact-261] + CNC(=O)O/N=C/C(C)(C)SC [aldicarb] the “aldicarb interaction hit call” value was inactive: 0.
In the case of `Fc1ccc(N2CCN(C3CCCN(Cc4ccc(C(F)(F)F)cc4)C3)CC2)cc1` (stereo unspecified) [wact-308] + CNC(=O)O/N=C/C(C)(C)SC [aldicarb], the “aldicarb interaction hit call” value is reported as inactive: 0.
With `O=C(Nc1ccc(Cl)cc1)c1ccc(CN2CCc3ccccc3C2)cc1` [wact-9] + CNC(=O)O/N=C/C(C)(C)SC [aldicarb] the “aldicarb interaction hit call” value was inactive: 0.
In the case of `c1ccc2c(SCCc3ccncc3)cccc2c1` [wact-19] + CNC(=O)O/N=C/C(C)(C)SC [aldicarb], the “aldicarb interaction hit call” value is reported as inactive: 0.
With `CCc1ccccc1Nc1nc(-c2ccncc2)cs1` [wact-475] + CNC(=O)O/N=C/C(C)(C)SC [aldicarb] the “aldicarb interaction hit call” value was inactive: 0.
With `COc1ccc(-c2nc3ccc(N)cc3o2)cc1` [wact-230] + CNC(=O)O/N=C/C(C)(C)SC [aldicarb] the “aldicarb interaction hit call” value was inactive: 0.
`CCn1ncc(Cl)c1C(=O)Nc1cccc(Cl)c1Cl` [wact-71] + CNC(=O)O/N=C/C(C)(C)SC [aldicarb] was tested, and the “aldicarb interaction hit call” value was inactive: 0.
In the case of `Cc1ccccc1Cn1c(=N)n(CC(O)c2ccc(Cl)c(Cl)c2)c2ccccc21.Cl` (stereo unspecified) [wact-625] + CNC(=O)O/N=C/C(C)(C)SC [aldicarb], the “aldicarb interaction hit call” value is reported as inactive: 0.
For `C=CCNCc1ccc(-c2ccc(Cl)cc2)o1.Cl` [wact-187] + CNC(=O)O/N=C/C(C)(C)SC [aldicarb], the “aldicarb interaction hit call” value was inactive: 0.
`c1cnc(SCCCOc2ccc3ccccc3c2)nc1` [wact-525] + CNC(=O)O/N=C/C(C)(C)SC [aldicarb] was tested, and the “aldicarb interaction hit call” value was inactive: 0.
In the case of `c1ccc2[nH]c(-c3cncs3)nc2c1` [wact-608] + CNC(=O)O/N=C/C(C)(C)SC [aldicarb], the “aldicarb interaction hit call” value is reported as inactive: 0.
`Cn1nccc1C(=O)Nc1ccc(Cl)c(C(F)(F)F)c1` [wact-198] + CNC(=O)O/N=C/C(C)(C)SC [aldicarb] was tested, and the “aldicarb interaction hit call” value was inactive: 0.
`Fc1ccc(CNc2ccc(N3CCN(Cc4ccccc4)CC3)cc2)cc1` [wact-631] + CNC(=O)O/N=C/C(C)(C)SC [aldicarb] was tested, and the “aldicarb interaction hit call” value was inactive: 0.
For `O=C(c1cc(COc2ccc3ncccc3c2)on1)N1CCCC1c1ccc(F)cc1` (stereo unspecified) [wact-277] + CNC(=O)O/N=C/C(C)(C)SC [aldicarb], the “aldicarb interaction hit call” value was inactive: 0.
With `COc1ccc2nc(NC(=O)C3CCCO3)sc2c1` (stereo unspecified) [wact-523] + CNC(=O)O/N=C/C(C)(C)SC [aldicarb] the “aldicarb interaction hit call” value was inactive: 0.
For `CC(C)(C)c1ccc(-c2noc(-c3cccnc3)n2)cc1` [wact-133] + CNC(=O)O/N=C/C(C)(C)SC [aldicarb], the “aldicarb interaction hit call” value was inactive: 0.
`Ic1cccc(-c2nnc(-c3ccccc3)o2)c1` [wact-51] + CNC(=O)O/N=C/C(C)(C)SC [aldicarb] was tested, and the “aldicarb interaction hit call” value was inactive: 0.
In the case of `Cc1ccc(/C(N)=N/OC(=O)c2ccccc2)cc1` [wact-454] + CNC(=O)O/N=C/C(C)(C)SC [aldicarb], the “aldicarb interaction hit call” value is reported as inactive: 0.
`Clc1ccc(N2CCN(Cc3cccc(Br)c3)CC2)cc1` [wact-215] + CNC(=O)O/N=C/C(C)(C)SC [aldicarb] was tested, and the “aldicarb interaction hit call” value was inactive: 0.
